Source: article PMC10219916
No constants are given. Whether binding was seen depends on the method and setting. In cells and extracts the contact can be indirect. Some binding calls cover weakened binding; strength is not graded here. For part of these data: Tags and fused reporters may be left off the sequences shown.

By UniProt entry, the sequences of proteins in these tests, tags left out.
UniProt P01106: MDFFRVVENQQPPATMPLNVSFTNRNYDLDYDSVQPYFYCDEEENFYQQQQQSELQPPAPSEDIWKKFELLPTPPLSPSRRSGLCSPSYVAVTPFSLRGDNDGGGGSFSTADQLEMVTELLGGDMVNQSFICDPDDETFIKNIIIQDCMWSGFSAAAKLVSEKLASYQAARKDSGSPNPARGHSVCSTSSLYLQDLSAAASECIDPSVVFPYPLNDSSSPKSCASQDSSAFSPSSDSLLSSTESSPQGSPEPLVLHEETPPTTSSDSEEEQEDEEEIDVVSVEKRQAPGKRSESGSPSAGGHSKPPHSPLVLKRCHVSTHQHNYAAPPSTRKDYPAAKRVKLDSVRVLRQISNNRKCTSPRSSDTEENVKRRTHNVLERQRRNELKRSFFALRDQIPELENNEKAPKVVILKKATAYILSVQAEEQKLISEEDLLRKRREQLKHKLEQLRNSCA

Key:
[1] = target: T1, Flag-ATAD2 (human) (UniProt Q6PL18); experiment: co-IP; HEK293T co-transfected with Flag-ATAD2 and HA-c-Myc, 48 h; IP lysis buffer; anti-Flag magnetic beads, eluted with 3X Flag peptide; immunoblot
T1 sequence: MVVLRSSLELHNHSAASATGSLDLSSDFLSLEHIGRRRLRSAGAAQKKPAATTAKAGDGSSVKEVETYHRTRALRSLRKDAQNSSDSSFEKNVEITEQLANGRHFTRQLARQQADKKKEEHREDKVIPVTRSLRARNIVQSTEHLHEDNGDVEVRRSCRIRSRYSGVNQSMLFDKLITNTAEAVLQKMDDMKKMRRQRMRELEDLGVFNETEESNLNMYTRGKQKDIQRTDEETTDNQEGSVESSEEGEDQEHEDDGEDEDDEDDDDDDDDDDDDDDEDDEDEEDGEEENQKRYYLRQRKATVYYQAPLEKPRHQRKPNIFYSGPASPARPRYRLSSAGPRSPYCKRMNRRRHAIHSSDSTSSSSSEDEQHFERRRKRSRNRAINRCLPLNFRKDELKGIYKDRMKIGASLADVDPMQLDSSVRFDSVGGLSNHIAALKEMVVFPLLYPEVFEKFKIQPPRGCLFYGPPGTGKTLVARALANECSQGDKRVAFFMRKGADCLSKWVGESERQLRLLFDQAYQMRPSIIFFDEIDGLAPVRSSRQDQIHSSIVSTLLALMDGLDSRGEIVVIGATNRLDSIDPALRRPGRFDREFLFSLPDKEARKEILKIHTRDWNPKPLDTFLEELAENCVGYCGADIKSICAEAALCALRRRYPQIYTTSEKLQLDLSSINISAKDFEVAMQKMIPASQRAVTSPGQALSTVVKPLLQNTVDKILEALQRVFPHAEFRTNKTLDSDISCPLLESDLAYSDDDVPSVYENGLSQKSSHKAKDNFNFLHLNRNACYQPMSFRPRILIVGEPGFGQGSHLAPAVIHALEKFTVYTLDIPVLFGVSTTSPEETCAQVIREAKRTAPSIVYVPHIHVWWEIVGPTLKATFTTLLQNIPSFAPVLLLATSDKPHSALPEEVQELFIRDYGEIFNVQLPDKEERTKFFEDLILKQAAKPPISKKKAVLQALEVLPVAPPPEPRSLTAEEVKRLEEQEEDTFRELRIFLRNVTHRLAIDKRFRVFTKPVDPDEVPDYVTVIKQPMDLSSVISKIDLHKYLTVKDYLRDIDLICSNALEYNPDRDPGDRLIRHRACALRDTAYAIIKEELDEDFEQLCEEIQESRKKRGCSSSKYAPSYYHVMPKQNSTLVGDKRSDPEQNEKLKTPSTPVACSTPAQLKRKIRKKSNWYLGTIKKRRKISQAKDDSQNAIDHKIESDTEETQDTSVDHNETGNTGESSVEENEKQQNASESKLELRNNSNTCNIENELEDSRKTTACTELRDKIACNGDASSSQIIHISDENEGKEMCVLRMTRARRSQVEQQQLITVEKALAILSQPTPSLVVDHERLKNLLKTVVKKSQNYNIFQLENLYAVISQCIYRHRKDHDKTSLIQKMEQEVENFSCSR

[2] = target: T2, ATPase family AAA domain-containing protein 2 (ATAD2), endogenous (human (endogenous; cell line not named, all cell lines of the paper are human)) (UniProt Q6PL18); experiment: co-IP; endogenous proteins; cells lysed in IP lysis buffer (20 mM Tris-HCl, 150 mM NaCl, 1% Triton X-100, pH 7.5); anti-ATAD2, anti-c-Myc or control IgG overnight at 4 °C, protein A + G agarose beads 4 h; immunoblot
T2 sequence: T1 sequence

[3] = target: c-Myc, endogenous (human (endogenous; cell line not named, all cell lines of the paper are human)) (UniProt P01106); experiment: as above

HA-c-Myc (from UniProt P01106 1-454)
binding [1]: binds

c-Myc, endogenous (from UniProt P01106 1-454)
binding [2]: binds

B1: ATPase family AAA domain-containing protein 2 (ATAD2), endogenous (protein, UniProt Q6PL18 1-1390)
chain: T1 sequence
binding [3]: binds
